Our source for the cell number change and AC50 values is PubChem BioAssay AID2685 (National Center for Advancing Translational Sciences (NCATS), 2010).

Each structure is given as a SMILES string. The list shows a part of the results. Further columns of the screen follow, without active or inactive calls. Most of these compounds were active or inconclusive in the main read-out, so they are no random draw. Potencies come from curve fits of mixed quality, noted in brackets.

As a reminder, the AC50 is the midpoint of the concentration-response curve, whichever way the signal moves. High values mean weaker potency, low ones greater potency.

The nature of this experiment: qHTS Assay for Lipid Storage Modulators in Drosophila S3 Cells.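 As to cell number change: cells counted by Cell Tracker Red CMTPX staining in the red channel.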 Conditions: BODIPY lipid droplet fluorescence, 18-24 h; for cell number change: measured here: cell count max response, cells fed with added oleic acid. The method, boiled down:
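Drosophila S3 cells got compounds at several concentrations plus oleic acid (400 uM solution). Laser-scanning cytometry with 488 nm excitation read lipid droplets at 500-530 nm and cells at 575-640 nm. Percent activity was relative to 20 uM Triacsin C.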
On the technique in general: In qHTS, concentration-response curves come from the screen itself.

Setting [1] is: measured here: lipid fluorescence (Fed channel) AC50, cells fed with added oleic acid.
Where [2] appears, read: measured here: cell number channel AC50, cells fed with added oleic acid.

Consider `CCOc1ccc(Cc2c(C)[nH]c3ccc(C(=O)O)cc3c2=S)cc1`, for which the cell number change came out at 3.17%. Under setting [1], the AC50 is 0.291 µM [rising, full curve].

As to `Cc1ccc(S(=O)(=O)NCC(c2ccco2)S(=O)(=O)c2ccccc2)cc1` (configuration not stated), the AC50 under setting [1] was 6.51 µM [falling, single point].

Regarding `CCN(CC)S(=O)(=O)c1cccc(NC(=O)COC(=O)CCC(=O)c2ccc(F)cc2)c1`, the cell number change worked out at 69.5%. Further, the AC50 under setting [2] is 6.51 µM [falling, single point]. Further, the AC50 under setting [1] is 6.51 µM [rising, single point].

For `O=c1oc2ccccc2cc1-c1cn(-c2ccccc2)c(=S)[nH]1`, the cell number change is 3.49%. In addition, the AC50 under setting [1] is 1.64 µM [rising, partial curve, poor fit].

Consider `Cc1nnc(N2CCC(C(=O)N3CCCCC3)CC2)c2nn(-c3ccc(Cl)cc3)c(C)c12`, for which the cell number change was -106%. Also, the AC50 under setting [2] was 29.1 µM [falling, single point]. Under setting [1], the AC50 was 29.1 µM [falling, single point].

For `Cc1ccc(CCP(=O)(O)CN2CCOCC2)cn1`, the cell number change is -13.3%. Moreover, the AC50 under setting [2] is 0.0206 µM [falling, full curve, poor fit]. For the same compound, the AC50 under setting [1] was 0.651 µM [falling, partial curve, poor fit].

Take `COc1cccc(-c2cc(C(=O)N3CCN(S(=O)(=O)c4ccc(Br)cc4)CC3)[nH]n2)c1`: the half-maximal activity concentration (AC50) under setting [1] is 4.11 µM [falling, full curve, poor fit].

Take `N#CC1=C2SCC(O)(c3ccccc3)N2C(=O)CC1c1ccccc1F` (configuration not stated): the cell number change was found to be 223%. Further, the half-maximal activity concentration (AC50) under setting [2] is 18.4 µM [rising, partial curve].

On to `COc1cc(OC)cc(C(=O)Nc2ncc3c(n2)CC(C)(C)CC3=O)c1`, for which the cell number change was found to be 2.44%. Further, the AC50 under setting [1] is 0.13 µM [falling, full curve, poor fit].

On to `CCC(c1nnnn1C(C)(C)CC)N(CCCO)Cc1cc2cc(C)cc(C)c2[nH]c1=O` (configuration not stated), for which the cell number change is 40.9%. Besides, the half-maximal activity concentration (AC50) under setting [2] was 2.59 µM [rising, full curve]. Moreover, the AC50 under setting [1] was 2.91 µM [rising, partial curve].

Regarding `O=C(O)c1ccc(-n2cccn2)c([N+](=O)[O-])c1`, the cell number change was determined as 23.9%. In addition, the AC50 under setting [1] is 18.4 µM [falling, partial curve].

As to `COc1ccc2nc(NC(=O)CSCC(=O)Nc3cc(C)on3)sc2c1`, the cell number change amounted to 8.5%.

As to `COC(=O)CCC(=O)OC1(C)C(=O)C2=CN(CCCCO)C(c3ccc(OC)cc3)=CC2=C(Br)C1=O` (configuration not stated), the cell number change turned out to be 15.6%. Further, the AC50 under setting [2] is 7.31 µM [rising, partial curve, poor fit]. For the same compound, under setting [1], the AC50 is 1.03 µM [rising, single point].

Regarding `CC(C)C(NC(=O)/C=C/c1cccc([N+](=O)[O-])c1)C(C)C`, the cell number change is -23.6%. The AC50 under setting [2] was 0.731 µM [rising, full curve]. Moreover, under setting [1], the concentration at half-maximal activity (AC50) is 29.1 µM [falling, single point].

As to `O=C1CN(C(=O)c2cccc(Br)c2)c2ccccc2N1`, the cell number change came out at 15.8%. In addition, under setting [1], the AC50 was 1.16 µM [falling, single point].

Consider `CCCC(=O)OC1CC(C)N(C(=O)c2ccccc2)c2ccc(C)cc21` (configuration not stated), for which the cell number change is -24.9%. The AC50 under setting [1] was 29.1 µM [falling, single point].

Regarding `COc1ccc(OC)c(NC(=S)NCCSc2ccc(C)cc2)c1`, the half-maximal activity concentration (AC50) under setting [1] was 23.1 µM [falling, partial curve, poor fit].

In the case of `CCC(C)(C)NC(=O)c1ccccc1Oc1ccccc1`, the cell number change was 99.7%. The half-maximal activity concentration (AC50) under setting [2] is 0.651 µM [falling, partial curve].

For the compound `COc1ccc(CC(=O)NC2CCS(=O)(=O)C2)cc1` (configuration not stated), the cell number change is 3.38%. Also, under setting [1], the AC50 is 29.1 µM [falling, single point].

As to `OC1(c2ccc3ccccc3c2)CCN(Cc2ccccc2)C1` (configuration not stated), the cell number change stood at 17.8%.

Regarding `O=C(N/N=C/c1cccnc1)c1cccs1`, the cell number change stood at 13%. Also, the AC50 under setting [1] is 7.31 µM [rising, single point].

On to `Nn1cnnc1N/N=C/c1ccc(F)cc1`, for which the cell number change was -11.1%. The AC50 under setting [1] is 20.6 µM [falling, single point].

For the compound `CC1CCCN(CCCNC(=O)c2coc3nc4ccccc4nc23)C1` (configuration not stated), the cell number change was 134%. Further, under setting [2], the AC50 was 0.0731 µM [falling, full curve, poor fit].

As for `Cn1c(=NC(=O)COc2ccccc2)sc2ccccc21`, the cell number change was 31.8%. Further, the concentration at half-maximal activity (AC50) under setting [2] is 0.082 µM [rising, full curve, poor fit]. In addition, under setting [1], the AC50 is 0.92 µM [rising, full curve, poor fit].

Take `COC(=O)c1ccc(-n2nnnc2SCc2nn[nH]n2)cc1`: the cell number change was -19.7%. For the same compound, the AC50 under setting [2] was 0.731 µM [falling, full curve].

In the case of `COC(=O)c1ccc(Sc2ccccn2)c([N+](=O)[O-])c1`, the cell number change is 171%. The AC50 under setting [2] was 6.51 µM [rising, full curve]. Besides, under setting [1], the AC50 is 5.8 µM [rising, full curve].

Regarding `CC(Sc1cnc2ccccc2n1)C(=O)O` (configuration not stated), under setting [1], the half-maximal activity concentration (AC50) is 0.116 µM [rising, full curve, poor fit].

With `Cc1nc2ccccc2c(C)c1CC(=O)OC(C)C(=O)NC1(C#N)CCCCC1` (configuration not stated), under setting [2], the concentration at half-maximal activity (AC50) was 3.66 µM [rising, partial curve].

Regarding `C#CCOC(=O)Nc1ccc(=O)n(Cc2c(Cl)cccc2Cl)c1`, under setting [1], the AC50 is 16.4 µM [rising, single point].

Regarding `CC1CCCCN1CCNC(=O)CC1Oc2ccccc2NC1=O` (configuration not stated), the cell number change is 7.49%. Besides, under setting [1], the AC50 is 0.164 µM [rising, full curve, poor fit].

Turning to `CC(C)Cn1c2c(c(O)c(C(=O)Nc3ncccc3O)c1=O)CCCC2`, under setting [1], the concentration at half-maximal activity (AC50) is 0.651 µM [falling, single point].

Regarding `Cc1cccc(C(=O)NNC(=O)c2ccc(F)cc2)c1`, the cell number change was -15.7%. Moreover, the AC50 under setting [2] is 3.66 µM [falling, partial curve]. Besides, the AC50 under setting [1] is 9.2 µM [rising, partial curve].

On to `COc1ccc(/C=C/C(=O)Nc2ccc(S(=O)(=O)Nc3onc(C)c3C)cc2)cc1OC`, for which the cell number change was determined as 8.56%. Under setting [1], the AC50 was 35.5 µM [rising, single point].

As for `CC(=O)NC(Cc1cccc(F)c1)C(=O)NC1CCN(C(=O)c2ccc(C)cc2)CC1` (configuration not stated), the cell number change is 7.4%. The half-maximal activity concentration (AC50) under setting [2] is 6.51 µM [falling, single point].

For the compound `CCOc1ccc(NC(=O)CN(C)c2ccc(S(=O)(=O)N(C(C)C)C(C)C)cn2)cc1OCC`, the cell number change was -3.57%. Besides, the AC50 under setting [1] was 4.11 µM [rising, single point].

Take `Cc1ccc(NC2=NCC(=O)N2Cc2cccs2)cc1C`: the cell number change was -13.7%. Besides, the AC50 under setting [1] was 0.164 µM [falling, full curve, poor fit].
